Patent US20070142386A1, “New 2-substituted, 4-amino-thiazolo[4,5-d] pyrimidines, useful as chemokine receptor antagonists, esp. cx3cr1” (AstraZeneca, priority 2003, published 2007)
Some entries share one result that the patent states for a list of compounds.

Biological target: T1, human fractalkine receptor (hCX3CR1) (Homo sapiens, UniProt P49238)
T1 construct: expressed in transfected cells; host or cells: HEKS 293 (human embryonic kidney suspension) cells stably expressing the chimeric G-protein Gαqi5; Membranes were used in the assay
T1 sequence (P49238 1-355): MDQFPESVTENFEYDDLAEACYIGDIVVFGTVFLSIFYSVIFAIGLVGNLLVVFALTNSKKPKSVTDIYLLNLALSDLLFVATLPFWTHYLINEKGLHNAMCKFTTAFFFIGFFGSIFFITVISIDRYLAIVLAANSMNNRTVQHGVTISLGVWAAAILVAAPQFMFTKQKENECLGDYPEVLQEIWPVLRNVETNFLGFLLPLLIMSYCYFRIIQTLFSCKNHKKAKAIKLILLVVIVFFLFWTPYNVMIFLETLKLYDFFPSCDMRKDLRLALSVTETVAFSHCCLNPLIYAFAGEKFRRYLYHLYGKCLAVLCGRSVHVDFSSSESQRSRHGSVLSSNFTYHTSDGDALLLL
Experiment: Ligand binding assay (competition binding with [125I]-fractalkine on cell membranes)
Conditions: 10 pM [125I]-fractalkine, membranes of HEKS 293 cells expressing hCX3CR1, 25° C., 24 h

CC(C)C[C@H](CO)Nc1nc(OCc2ccccc2)nc2nc(N)sc12 [Example 1, (2R)-2-{[2-Amino-5-(benzyloxy)[1,3]thiazolo[4,5-d]pyrimidin-7-yl]amino}-4-methylpentan-1-ol]
Ki: < 10 µM

CC(Oc1nc(NC2(CO)CCCC2)c2sc(=O)[nH]c2n1)c1ccccc1 (racemic) [Example 41, (R,S)-7-[[1-(Hydroxymethyl)cyclopentyl]amino}-5-(1-phenylethoxy)-thiazolo[4,5-d]pyrimidin-2(3H)-one]
Ki: < 10 µM

O=c1[nH]c2nc(OCc3ccccc3Cl)nc(NC3(CO)CCCC3)c2s1 [Example 35, 5-[(2-chlorobenzyl)oxy]-7-{[1-(hydroxymethyl)cyclopentyl]amino}[1,3]thiazolo[4,5-d]pyrimidin-2(3H)-one]
Ki: < 10 µM

CC(C)C[C@H](CO)Nc1nc(OCCc2ccccc2)nc2[nH]c(=O)sc12 [Example 27, 7-{[(1R)-1-(Hydroxymethyl)-3-methylbutyl]amino}-5-(2-phenylethoxy)[1,3]thiazolo[4,5-d]pyrimidin-2(3H)-one]
Ki: < 10 µM

Cc1ccccc1COc1nc(NC2(CO)CCCC2)c2sc(=O)[nH]c2n1 [Example 33, 7-{[1-(Hydroxymethyl)cyclopentyl]amino}-5-[(2-methylbenzyl)oxy][1,3]thiazolo[4,5-d]pyrimidin-2(3H)-one]
Ki: < 10 µM

CC(C)CC(CO)Nc1nc([S+]([O-])Cc2cccc(F)c2F)nc2[nH]c(=O)cnc12 [Example 24, 2-[(2,3-Difluorobenzyl)-(RS,SS)-sulfinyl]-4-(1R)-1-(hydroxymethyl)-3-methylbutyl]amino}pteridin-7(8H)-one]
Ki: < 10 µM

CC(C)C[C@H](CO)N(C)c1nc(OCc2ccccc2)nc2nc(N)sc12 [Example 9, (2R)-2-[[2-Amino-5-(benzyloxy)[1,3]thiazolo[4,5-d]pyrimidin-7-yl](methyl)amino]-4-methylpentan-1-ol]
Ki: < 10 µM

CC(C)C[C@H](CO)Nc1nc(OCc2ccc(Cl)cc2)nc2[nH]c(=O)cnc12 [Example 20, 2-[(4-Chlorobenzyl)oxy]-4-{[(1R)-1-(hydroxymethyl)-3-methylbutyl]amino}pteridin-7(8H)-one]
Ki: < 10 µM

CC(C)CC(CO)Nc1nc([S+]([O-])CCc2ccc(Br)cc2)nc2nc(N)sc12 [Example 11, (2R)-2-[(2-Amino-5-{[2-(4-bromophenyl)ethyl}-(RS,SS)-sulfinyl}[1,3]thiazolo[4,5-d]pyrimidin-7-yl)amino]-4-methylpentan-1-ol]
Ki: < 10 µM

CCC[C@H](CO)Nc1nc(OCc2cccc(N(C)S(C)(=O)=O)c2)nc2[nH]c(=O)sc12 [Example 30, N-(3-{[(7-{[(1R)-1-(Hydroxymethyl)butyl]amino}-2-oxo-2,3-dihydro[1,3]thiazolo[4,5-d]pyrimidin-5-yl)oxy]methyl}phenyl)-N-methylmethanesulfonamide]
Ki: < 10 µM

CC(C)C(CO)Nc1nc([S+]([O-])Cc2ccccc2)nc2[nH]c(=O)sc12 [Example 49, 5-[Benzyl-(RSSS)-sulfinyl]-7-{[(1R)-1-(hydroxymethyl)-2-methylpropyl]amino}[1,3]thiazolo[4,5-d]pyrimidin-2(3H)-one]
Ki: < 10 µM

CC(C)C[C@H](CO)Nc1nc([S+]([O-])Cc2cccc(F)c2F)nc2[nH]c(=O)sc12 (mixture of isomers) [Example 45, 5-[(2,3-Difluorobenzyl)-(RS,SS)-sulfinyl]-7-{[(1R)-1-(hydroxymethyl)-3-methylbutyl]amino}[1,3]thiazolo[4,5-d]pyrimidin-2(3H)-one]
Ki: < 10 µM

Cc1ccccc1COc1nc(N(C)[C@@H](CO)CC(C)C)c2sc(N)nc2n1 [Example 5, (2R)-2-{[2-Amino-5-[(2-methylbenzyl)oxy][1,3]thiazolo[4,5-d]pyrimidin-7-yl}(methyl)amino]-4-methylpentan-1-ol]
Ki: < 10 µM

CC(C)CC(CO)Nc1nc([S+]([O-])CCc2cccc(Cl)c2)nc2[nH]c(=O)sc12 [Example 43, 5-{[2-(3-Chlorophenyl)-(RS,SS)-ethyl]sulfinyl}-7-{[(1R)-1-(hydroxymethyl)-3-methylbutyl]amino}[1,3]thiazolo[4,5-d]pyrimidin-2(3H)-one]
Ki: < 10 µM

CC(C)[C@H](CO)Nc1nc(OCc2cccc(NS(C)(=O)=O)c2)nc2[nH]c(=O)sc12 [Example 31, N-(3-{[(7-{[(1R)-1-(Hydroxymethyl)-2-methylpropyl]amino}-2-oxo-2,3-dihydro[1,3]thiazolo[4,5-d]pyrimidin-5-yl)oxy]methyl}phenyl)-methanesulfonamide]
Ki: < 10 µM

Cc1cccc(COc2nc(N[C@@H](CO)CC(C)C)c3ncc(=O)[nH]c3n2)c1 [Example 22, 4-{[(1R)-1-(Hydroxymethyl)-3-methylbutyl]amino}-2-[(3-methylbenzyl)oxy]pteridin-7(8H)-one]
Ki: < 10 µM

Cc1ccc(COc2nc(N[C@@H](CO)CC(C)C)c3ncc(=O)[nH]c3n2)cc1 [Example 21, 4-{[(1R)-1-(Hydroxymethyl)-3-methylbutyl]amino}-2-[(4-methylbenzyl)oxy]pteridin-7(8H)-one]
Ki: < 10 µM

C[C@H](Oc1nc(NC2(CO)CCCC2)c2sc(=O)[nH]c2n1)c1ccccc1 [Example 42]
Ki: < 10 µM

O=c1[nH]c2nc(OCc3cccc(Cl)c3)nc(NC3(CO)CCCC3)c2s1 [Example 36, 5-[(3-Chlorobenzyl)oxy]-7-{[1-(hydroxymethyl)cyclopentyl]amino}[1,3]thiazolo[4,5-d]pyrimidin-2(3H)-one]
Ki: < 10 µM

CC(C)C[C@H](CO)N(C)c1nc(OCc2cccc(Cl)c2)nc2nc(N)sc12 [Example 7, (2R)-2-[{2-Amino-5-[(3-chlorobenzyl)oxy][1,3]thiazolo[4,5-d]pyrimidin-7-yl}(methyl)amino]-4-methylpentan-1-ol]
Ki: < 10 µM

CC(C)C[C@H](CO)Nc1nc(OCc2cccc(F)c2F)nc2[nH]c(=O)cnc12 [Example 14, 2-[(2,3-Difluorobenzyl)oxy]-4-{[(1R)-1-(hydroxymethyl)-3-methylbutyl]amino}pteridin-7(8H)-one]
Ki: < 10 µM

COc1ccccc1COc1nc(N(C)[C@@H](CO)CC(C)C)c2sc(N)nc2n1 [Example 8, (2R)-2-[{2-amino-5-[(2-methoxybenzyl)oxy][1,3]thiazolo[4,5-d]pyrimidin-7-yl}(methyl)amino]-4-methylpentan-1-ol]
Ki: < 10 µM

CC(C)CC(CO)Nc1nc([S+]([O-])CCc2ccccc2Br)nc2nc(N)sc12 [Example 12, (2R)-2-[(2-Amino-5-{[2-(2-bromophenyl)ethyl]-(RS,SS)-sulfinyl}[1,3]thiazolo[4,5-d]pyrimidin-7-yl)amino]-4-methylpentan-1-ol]
Ki: < 10 µM

COc1cccc(COc2nc(N[C@@H](CO)CC(C)C)c3ncc(=O)[nH]c3n2)c1 [Example 15, 4-{[(1R)-1-(Hydroxymethyl)-3-methylbutyl]amino}-2-[(3-methoxybenzyl)oxy]pteridin-7(8H)-one]
Ki: < 10 µM

CC(C)C[C@H](CO)Nc1nc(OCCc2ccccc2)nc2nc(N)sc12 [Example 3, (2R)-2-{[2-Amino-5-(2-phenylethoxy)[1,3]thiazolo[4,5-d]pyrimidin-7-yl]amino}-4-methylpentan-1-ol]
Ki: < 10 µM

CC(C)C[C@H](CO)N(C)c1nc(OCc2ccc(Cl)cc2)nc2nc(N)sc12 [Example 6, (2R)-2-[{2-Amino-5-[(4-chlorobenzyl)oxy][1,3]thiazolo[4,5-d]pyrimidin-7-yl}(methyl)amino]-4-methylpentan-1-ol]
Ki: < 10 µM
